Results reported in PubChem BioAssay.
Inconclusive results, whose numbers are uncertain, are shown with a selection of clear calls. Potencies beside an inconclusive call are fits to weak or partial responses and may not hold up. Calls of active or inactive are those of the source. Unless noted, the limit is not given here; nearly all actives have AC50 up to about 37 µM.

What was measured:
[1] = growth inhibition of DIPG glioma cells, dose response, cell-based, SU-DIPG-XVII, MIPE5.0, CellTiter-Glo, qHTS (AID 1347060; cut-off not given, nearly all actives have AC50 up to about 26 µM;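 also: cells exposed to compound for 48 hours before viability readout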); conditions: SU-DIPG-XVII viability, CellTiter-Glo ATP luminescence
[2] = SU-DIPG-XXV glioma cell viability, MIPE5.0 library, qHTS (AID 1347068; cut-off not given, nearly all actives have IC50 up to about 30 µM;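 as to IC50: cells exposed to compound for 48 hours before viability readout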)
[3] = growth inhibition of DIPG glioma cells, dose response, cell-based, SU-DIPG-XIII, MIPE4.0, CellTiter-Glo, qHTS (AID 1347061); conditions: SU-DIPG-XIII viability, CellTiter-Glo ATP luminescence;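 also: cells exposed to compound for 48 hours before readout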
[4] = growth inhibition of DIPG glioma cells, dose response, cell-based, JHH-DIPG-1, MIPE4.0, CellTiter-Glo, qHTS (AID 1347062; cut-off not given, nearly all actives have AC50 up to about 27 µM;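 as to AC50: cells exposed to compound for two days before readout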); conditions: JHH-DIPG-1 viability, CellTiter-Glo ATP luminescence
[5] = growth inhibition of DIPG glioma cells, dose response, cell-based, SU-DIPG-IV, MIPE4.0, CellTiter-Glo, qHTS (AID 1347063; cut-off not given, nearly all actives have AC50 up to about 30 µM;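 also: compound exposure lasted 48 hours before the viability readout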); conditions: SU-DIPG-IV viability, CellTiter-Glo ATP luminescence
[6] = JHH-DIPG-1 glioma cell viability, MIPE5.0 library, CellTiter-Glo luminescence, qHTS (AID 1347067; cut-off not given, nearly all actives have AC50 up to about 26 µM;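 also: cells exposed to compound for 48 hours before readout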); conditions: JHH-DIPG-1 glioma viability, CellTiter-Glo ATP luminescence
[7] = growth inhibition of DIPG glioma cells, dose response, cell-based, SU-DIPG-XIII, MIPE5.0, CellTiter-Glo, qHTS (AID 1347064; cut-off not given, nearly all actives have AC50 up to about 23 µM;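 as to AC50: cells exposed to compound for 48 hours before the viability read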); conditions: SU-DIPG-XIII viability, CellTiter-Glo ATP luminescence
[8] = viability loss in pontine glioma line – cell-based, SU-DIPG-XXV, MIPE5.0, CellTiter-Glo, qHTS, dose response (AID 1347065; cut-off not given, nearly all actives have AC50 up to about 26 µM;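 also: cells exposed to compound for 48 hours before ATP readout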); conditions: CellTiter-Glo ATP luminescence
[9] = SU-DIPG-VI glioma cell viability, MIPE4.0 library, CellTiter-Glo luminescence, qHTS (AID 1347066; cut-off not given, nearly all actives have AC50 up to about 30 µM;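 also: cells exposed to compound for 48 hours before readout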); conditions: CellTiter-Glo ATP luminescence

Cc1ccc(S(=O)(=O)Nc2cc(C(F)(F)F)ccc2C(=O)Nc2nc(-c3ccccc3)cs2)cc1
AC50 [1]: inconclusive: 0.209 µM [cytotoxic] | IC50 [2]: active: 4.68 µM

CC(=O)Nc1sc2c(c1-c1nc3ccccc3s1)CNC2
AC50 [3]: inconclusive: 5.9 µM [cytotoxic]

COC[C@H](c1ccc(C(F)(F)F)cc1)N1CCN(C2(C)CCN(C(=O)c3c(C)ncnc3C)CC2)C[C@H]1C
AC50 [3]: inconclusive: 3.72 µM [cytotoxic] | AC50 [4]: inconclusive: 0.935 µM [cytotoxic] | AC50 [5]: active: 11.8 µM

COc1cc(/C=C(\C#N)C(=O)Nc2nnc(C(F)(F)F)s2)ccc1OCc1ccc(C(F)(F)F)cc1C(F)(F)F
AC50 [1]: active: 5.25 µM | IC50 [2]: inconclusive: 29.5 µM [cytotoxic]

OCC(O)C(O)C(O)CO (centres undefined)
outcome [3]: inactive | outcome [4]: inactive | outcome [5]: inactive

CN(C)CCCC1(c2ccc(F)cc2)OCc2cc(C#N)ccc21 (centres undefined)
AC50 [3]: inconclusive: 37.2 µM [cytotoxic] | AC50 [4]: inconclusive: 1.05 µM [cytotoxic] | outcome [5]: inactive

CC1(C)O[C@H]2CC(=O)OC[C@]23[C@H]2CC[C@@]4(C)[C@H](c5ccoc5)OC(=O)[C@H]5O[C@]54[C@]2(C)C(=O)C[C@@H]13
AC50 [3]: inconclusive: 33.2 µM [cytotoxic]

NC(=O)c1nnn(Cc2cc(Cl)c(C(=O)c3ccc(Cl)cc3)c(Cl)c2)c1N
AC50 [3]: inconclusive: 20.9 µM [cytotoxic] | AC50 [4]: inconclusive: 33.2 µM [cytotoxic] | AC50 [5]: inconclusive: 20.9 µM [cytotoxic]

Cc1cn([C@@H]2C[C@@H](O)[C@H](CO)O2)c(=O)[nH]c1=O
AC50 [1]: inconclusive: 37.2 µM [cytotoxic] | outcome [2]: inactive

Nc1ccn([C@H]2CC[C@@H](CO)O2)c(=O)n1
AC50 [3]: inconclusive: 2.64 µM [cytotoxic] | AC50 [4]: inconclusive: 0.0833 µM

Cc1cccc2c1CC[C@H](CN1CCC(c3c(Cl)cccc3Cl)CC1)C[C@@H]2O
outcome [3]: inactive | AC50 [4]: inconclusive: 26.4 µM [cytotoxic] | AC50 [5]: inconclusive: 1.18 µM [cytotoxic]

NC(N)=Nc1nc(CSCCC(N)=NS(N)(=O)=O)cs1
outcome [3]: inactive | outcome [4]: inactive

CC1(C)[C@H](C(=O)O)N2C(=O)C[C@H]2S1(=O)=O
AC50 [3]: inconclusive: 14.8 µM [cytotoxic] | outcome [4]: inactive

c1ccc(-c2cc(CCC3CCNCC3)c3ccccc3n2)cc1
AC50 [1]: active: 23.5 µM | AC50 [6]: inconclusive: 26.3 µM [cytotoxic] | IC50 [2]: inconclusive: 37.2 µM [cytotoxic]

O=c1[nH]cnc2c1ncn2[C@H]1CC[C@@H](CO)O1
outcome [3]: inactive | AC50 [4]: inconclusive: 0.00132 µM | AC50 [5]: inconclusive: 0.0296 µM

Cc1c(C(=O)Nc2ccc(Oc3ccnc4[nH]cc(-c5ccccc5)c34)c(F)c2)c(=O)n(-c2ccc(F)cc2)n1C
AC50 [1]: inconclusive: 14.8 µM [cytotoxic] | IC50 [2]: inconclusive: 11.8 µM [cytotoxic]

CCc1ccc(N(CC(C)C)S(=O)(=O)c2ccc(OCC3CCOCC3)c(CO)c2)cc1
AC50 [1]: inconclusive: 0.00468 µM | AC50 [6]: inconclusive: 37.2 µM [cytotoxic] | IC50 [2]: inconclusive: 33.2 µM [cytotoxic]

CC(C)=CCC/C(C)=C/CC/C(C)=C/CC/C(C)=C/CC/C(C)=C/CC/C(C)=C/CC/C(C)=C/CC/C(C)=C/CC/C(C)=C/CO
AC50 [3]: inconclusive: 20.9 µM [cytotoxic]

O=C(c1cc(Cc2n[nH]c(=O)c3ccccc23)ccc1F)N1CCN(C(=O)C2CC2)CC1
AC50 [3]: active: 18.7 µM | outcome [4]: inactive | AC50 [5]: inconclusive: 18.7 µM [cytotoxic] | outcome [7]: inactive | AC50 [8]: inconclusive: 20.9 µM [cytotoxic] | outcome [9]: inactive | outcome [6]: inactive

CC(C)n1cnc2c(NCCCCCCNC(=O)OC(C)(C)C)nc(NCCO)nc21
AC50 [3]: inconclusive: 26.4 µM [cytotoxic] | AC50 [4]: inconclusive: 18.7 µM [cytotoxic] | AC50 [5]: inconclusive: 9.35 µM [cytotoxic] | AC50 [7]: inconclusive: 33.2 µM [cytotoxic] | AC50 [8]: inconclusive: 29.5 µM [cytotoxic] | AC50 [9]: inconclusive: 46.9 µM [cytotoxic] | AC50 [6]: active: 18.6 µM | IC50 [2]: inconclusive: 18.6 µM [cytotoxic]

CC1=C2[N-][C@H]([C@H](CC(N)=O)[C@@]2(C)CCC(=O)NC[C@@H](C)OP(=O)([O-])O[C@H]2[C@@H](O)[C@@H](n3cnc4cc(C)c(C)cc43)O[C@@H]2CO)[C@]2(C)N=C(C(C)=C3N=C(C=C4N=C1[C@@H](CCC(N)=O)C4(C)C)[C@@H](CCC(N)=O)[C@]3(C)CC(N)=O)[C@@H](CCC(N)=O)[C@]2(C)CC(N)=O.O.[Co+2]
AC50 [3]: inconclusive: 18.7 µM [cytotoxic] | AC50 [4]: inconclusive: 18.7 µM [cytotoxic] | AC50 [5]: inconclusive: 20.9 µM [cytotoxic] | AC50 [7]: inconclusive: 0.00742 µM | outcome [8]: inactive | AC50 [9]: inconclusive: 18.7 µM [cytotoxic] | AC50 [6]: inconclusive: 20.9 µM [cytotoxic] | IC50 [2]: inconclusive: 20.9 µM [cytotoxic]
